# Values joined by “and” are separate entries in the source; they are usually repeats but may differ in a detail not shown here. Equal values may be shown once. Some of the results follow. Further columns of the screen follow, without active or inactive calls. The list favours compounds with an active or inconclusive main result. Words in brackets tell the shape of the fitted curve; partial curves, single points and poor fits give uncertain potencies.
# Assay: IkB Signaling
# Conditions: ABC-DLBCL IkBa-CBG/CBR dual luciferase ratio (green luciferase fused to IkBa over red control in OCI-Ly3 lymphoma cells), 4 h
# Method in brief: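 In this assay, an IκBα–CBG68 fusion accumulates when IKK-driven degradation is blocked; native CBR normalizes for cell number. OCI-Ly3 cells were treated 4 h with compound and doxycycline, then green and red light read after Chroma-Glo addition.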
# [1] = measured here: control luc red channel unless noted
# [2] = measured here: IkB-luc green channel
# [3] = measured here: control luc red channel
structure (smiles),measurement,setting,value
O=C(c1cc2nc(-c3ccccc3)cc(-c3ccccc3)n2n1)N1CCN(C(=O)c2ccco2)CC1,AC50,[1],"7.94 µM [falling, partial curve]"
CCc1cccc(NC(=O)c2cc3c(=O)n(Cc4ccccc4)ccc3nc2C)c1,AC50,[1],"15.8 µM [falling, single point]"
CC(C)c1ccc(NC(=O)C2CCN(C(=O)c3ccc(F)cc3)CC2)cc1,AC50,[1],"25.1 µM [falling, partial curve]"
COc1cc(C(=O)Nc2ccccc2-c2nc(-c3ccccc3)no2)cc(OC)c1OC,AC50,[1],"0.1 µM [rising, full curve]"
Cc1ccc2nc(-c3cccs3)c(Nc3c(C)cccc3C)n2c1,AC50,[1],"7.94 µM [falling, full curve]"
Cc1c(C(=O)NCc2ccc(F)cc2)oc2ccc(S(=O)(=O)N3CCCCC3)cc12,AC50,[1],"25.1 µM [falling, partial curve, poor fit]"
COc1ccc(NC(=O)[C@H]2O[C@@H]3OC(C)(C)O[C@@H]3[C@H]3OC(C)(C)O[C@H]32)c(OC)c1,AC50,[1],"20 µM [falling, partial curve]"
COc1ccc(CCNc2oc(Cc3ccccc3)nc2C#N)cc1OC,AC50,[1],"25.1 µM [falling, single point]"
Cn1c(=O)[nH]c(=O)c2c1nc(N1CCOCC1)n2Cc1ccccc1,AC50,[1],"0.0126 µM [rising, full curve, poor fit]"
c1ccc2c(c1)oc1c(Nc3ccc(CN4CCOCC4)cc3)ncnc12,AC50,[1],"3.98 µM [falling, partial curve]"
Cc1ccc(NC(=O)CSc2nc(=O)n(Cc3cccnc3)c3c2CCC3)cc1F,AC50,[1],"12.6 µM [falling, partial curve]"
Cc1ccccc1Oc1nc2ccccn2c(=O)c1/C=C(\C#N)c1nc2ccccc2[nH]1,AC50,[1],"31.6 µM [falling, single point]"
COc1ccc(Cc2nc3ccc(C(=O)NCc4ccccc4C)cc3o2)cc1,AC50,[1],"5.01 µM [falling, partial curve, poor fit]"
COc1ccc(NC(=O)CN2C(=O)CC(c3ccc(C)c(C)c3)=Nc3ccccc32)cc1OC,AC50,[1],"31.6 µM [falling, partial curve]"
COc1ccc(N(Cc2cc3ccccc3[nH]c2=O)C(=O)c2cccc(Cl)c2)cc1,AC50,[1],"25.1 µM [falling, partial curve]"
Cc1ccc(NC(=O)c2c(C)cc(C)nc2SCC(=O)Nc2ccc(Br)cc2)cc1,AC50,[1],"3.98 µM [falling, full curve]"
CCc1nc2ccc(C(=O)NCCc3ccccc3OC)cc2nc1CC,AC50,[1],"39.8 µM [falling, single point]"
CC1CCN(CCc2nc3cc(NS(=O)(=O)c4ccc(F)cc4)ccc3n2C)CC1,AC50,[1],"7.94 µM [falling, partial curve]"
CC(C)(C)Cc1nnc(NS(=O)(=O)Cc2ccccc2)s1,AC50,[1],"7.94 µM [falling, partial curve]"
CCCC(O)c1nc2ccccc2n1CCCOc1ccc(Cl)cc1 (stereo not drawn),AC50,[1],"20 µM [falling, partial curve]"
CCc1cccc(NC(=O)C2CCCN(c3ncnc4onc(-c5ccc(F)cc5)c34)C2)c1 (stereo not drawn),AC50,[1],"31.6 µM [falling, single point]"
CCN1CCSc2ccc(C(=O)NCc3ccc(OC(C)C)cc3)cc21,AC50,[1],"20 µM [falling, single point]"
CCOC(=O)c1cccc(NC(=O)CSc2nnc(CNc3ccc(C)cc3)n2CC)c1,AC50,[1],"15.8 µM [falling, partial curve]"
Cc1nn(-c2ccccc2)c2sc(C(=O)N(CC(=O)NC(C)(C)C)Cc3ccco3)cc12,AC50,[2],"10 µM [falling, partial curve]"
same,AC50,[3],"12.6 µM [falling, partial curve]"
Cc1ccc(-n2c(C)cc(C(=O)C(=O)Nc3ccccc3)c2C)c(C)c1,AC50,[1],"31.6 µM [falling, single point]"
CC(=O)Nc1nc2n(n1)C(c1ccc(F)cc1)C=C(c1ccc(Cl)cc1)N2 (stereo not drawn),AC50,[1],"1.58 µM [rising, partial curve]"
CC(C(=O)NCCSCc1cccc(Cl)c1)N(c1ccccc1)S(C)(=O)=O (stereo not drawn),AC50,[1],"20 µM [falling, partial curve, poor fit]"
O=c1cc(-c2ccc(O)cc2)oc2cc(O)cc(O)c12,AC50,[2],"6.31 µM [falling, partial curve]"
same,AC50,[3],"7.94 µM [falling, full curve, poor fit] and 3.98 µM [falling, full curve] and 2.51 µM [falling, full curve]"
Cc1cccc(OCC(=O)Nc2cccc(OCc3cc(=O)n4cccc(C)c4n3)c2)c1,AC50,[1],"1.58 µM [falling, full curve]"
O=C(/C=C/c1ccccc1)Nc1cc(-c2nc3cc(Cl)ccc3o2)ccc1Cl,AC50,[1],"2 µM [falling, full curve]"
CCOc1cccc2cc(C(=O)N3CCc4ccccc4C3)c(=O)oc12,AC50,[1],"0.794 µM [falling, partial curve]"
Cc1cc2nc(-c3cccc(NC(=O)c4cccc5ccccc45)c3)oc2cc1C,AC50,[1],"0.316 µM [falling, full curve]"
COc1cccc(CNn2c(-c3cccc(C)c3)nc3ccccc3c2=O)c1O,AC50,[1],"39.8 µM [falling, single point]"
CC1CCCN(C(=O)c2cc3ccc4cccnc4c3[nH]2)C1 (stereo not drawn),AC50,[1],"0.501 µM [falling, full curve]"
COc1ccccc1S(=O)Cc1ccc(C(=O)NCCc2ccc(Cl)cc2)o1 (stereo not drawn),AC50,[1],"10 µM [falling, partial curve]"
CCCCNC(=O)c1ccc2c(c1)N(Cc1ccc(F)cc1)C(=O)c1ccccc1S2=O (stereo not drawn),AC50,[1],"20 µM [falling, partial curve]"
Cc1cc(C)c(NC(=O)Cn2c(=O)c3cccn3c3ccccc32)c(C)c1,AC50,[1],"2.51 µM [falling, partial curve]"
Cc1ccc(NC(=O)/C=C\C(=O)N(c2ccc(C(C)C)cc2)C(C(=O)NCc2ccco2)c2ccc(Cl)cc2)cc1 (stereo not drawn),AC50,[1],"15.8 µM [falling, partial curve]"
CCOCCCNC(=O)c1ccc(-n2c(-c3ccccc3)cc3c2CCCC3)cc1,AC50,[1],"3.98 µM [falling, partial curve]"
O=C1CC(C(=O)N(CC2CCCO2)C(C(=O)NC2CCCCC2)c2ccncc2)CS1 (stereo not drawn),AC50,[1],"20 µM [falling, partial curve]"
Cc1cccc(CNC(=O)c2ccc(NC(=O)N3CC(C)Sc4ccccc43)cc2)c1 (stereo not drawn),AC50,[1],"25.1 µM [falling, single point]"
CCCNC(=O)c1cc(S(=O)(=O)N2CCc3ccccc32)ccc1F,AC50,[1],"12.6 µM [falling, partial curve]"
O=C(/C=C\c1ccc2c(c1)OCO2)NC1CC(=O)N(c2cccc(F)c2)C1 (stereo not drawn),AC50,[1],"0.631 µM [rising, full curve]"
O=[N+]([O-])c1ccc(S(=O)(=O)Cc2ccccc2)c([N+](=O)[O-])c1,AC50,[1],"3.16 µM [falling, partial curve]"
CCOC(=O)c1cccc(NC(=O)c2ccc3nc(Cc4ccccc4)oc3c2)c1,AC50,[1],"15.8 µM [falling, partial curve]"
COc1ccc(Cl)cc1NC(=O)c1cnc2sccn2c1=O,AC50,[1],"3.16 µM [rising, full curve]"
COc1ccc(CN(Cc2ccco2)c2cnc(S(C)(=O)=O)nc2C(=O)Nc2ccc(F)cc2)cc1,AC50,[1],"20 µM [falling, single point]"
Cc1noc(C)c1COc1ccc(C(=O)OCC(=O)N2CC3(C)CC2CC(C)(C)C3)cc1 (stereo not drawn),AC50,[1],"25.1 µM [falling, partial curve]"
COc1ccc(OC)c(-c2csc(-c3c(N)c(C(=O)c4ccccc4)n4ccccc34)n2)c1,AC50,[1],"15.8 µM [falling, partial curve]"
O=C(c1ccc(Cl)cc1)C1C2C(=O)N(c3ccccc3)C(=O)C2C2CCCN21 (stereo not drawn),AC50,[1],"12.6 µM [falling, partial curve]"
COc1ccc(S(=O)(=O)N(CC(=O)Nc2cccc(C(F)(F)F)c2)c2ccc(C)cc2)cc1,AC50,[1],"7.94 µM [falling, full curve]"
COc1ccc(C)cc1-n1nnnc1SCc1cc(=O)n2cc(C)ccc2n1,AC50,[1],"15.8 µM [falling, partial curve]"
CCOC(=O)C1CCN(C(c2cc(OC)c(OC)c(OC)c2)c2sc3nc(C)nn3c2O)CC1 (stereo not drawn),AC50,[1],"31.6 µM [falling, single point]"
CCC(CC)COC(=O)C(C#N)c1nc2ccccc2nc1N1CCN(CC)CC1 (stereo not drawn),AC50,[1],"39.8 µM [falling, single point]"
Cc1c(Cl)cccc1-n1nc(C)c2c(C(=O)NCc3ccccc3)cc(C3CC3)nc21,AC50,[1],"7.94 µM [falling, partial curve]"
Cc1nc2c(-c3ccccc3)c(C)nn2c(C)c1CCC(=O)NCc1ccc(F)cc1,AC50,[1],"20 µM [falling, single point]"
Cn1c(=O)oc2cc(S(=O)(=O)Nc3ccccc3O)ccc21,AC50,[1],"12.6 µM [falling, partial curve]"
Cc1ccc(-c2cc(NC(=O)COc3ccc(Cl)cc3C)on2)cc1,AC50,[1],"39.8 µM [falling, partial curve]"
O=C(NCc1ccc(Cl)cc1)C1CCN(S(=O)(=O)Cc2ccccc2)CC1,AC50,[1],"2.51 µM [falling, full curve]"
COc1ccc(-c2cc(C(F)(F)F)nc(SCC(=O)N3CCC(C)CC3)n2)cc1,AC50,[1],"0.0631 µM [falling, full curve, poor fit]"
COc1cccc(/C=C/c2onc(C)c2S(=O)(=O)N2CCC(C(=O)N3CCC(C)CC3)CC2)c1,AC50,[1],"25.1 µM [falling, partial curve]"

# Some of the entries so far, tab-delimited.
structure (smiles)	measurement	setting	value
O=C(c1cc2nc(-c3ccccc3)cc(-c3ccccc3)n2n1)N1CCN(C(=O)c2ccco2)CC1	AC50	[1]	7.94 µM [falling, partial curve]
CCc1cccc(NC(=O)c2cc3c(=O)n(Cc4ccccc4)ccc3nc2C)c1	AC50	[1]	15.8 µM [falling, single point]
CC(C)c1ccc(NC(=O)C2CCN(C(=O)c3ccc(F)cc3)CC2)cc1	AC50	[1]	25.1 µM [falling, partial curve]
COc1cc(C(=O)Nc2ccccc2-c2nc(-c3ccccc3)no2)cc(OC)c1OC	AC50	[1]	0.1 µM [rising, full curve]
Cc1ccc2nc(-c3cccs3)c(Nc3c(C)cccc3C)n2c1	AC50	[1]	7.94 µM [falling, full curve]
Cc1c(C(=O)NCc2ccc(F)cc2)oc2ccc(S(=O)(=O)N3CCCCC3)cc12	AC50	[1]	25.1 µM [falling, partial curve, poor fit]
COc1ccc(NC(=O)[C@H]2O[C@@H]3OC(C)(C)O[C@@H]3[C@H]3OC(C)(C)O[C@H]32)c(OC)c1	AC50	[1]	20 µM [falling, partial curve]
COc1ccc(CCNc2oc(Cc3ccccc3)nc2C#N)cc1OC	AC50	[1]	25.1 µM [falling, single point]
Cn1c(=O)[nH]c(=O)c2c1nc(N1CCOCC1)n2Cc1ccccc1	AC50	[1]	0.0126 µM [rising, full curve, poor fit]
c1ccc2c(c1)oc1c(Nc3ccc(CN4CCOCC4)cc3)ncnc12	AC50	[1]	3.98 µM [falling, partial curve]
Cc1ccc(NC(=O)CSc2nc(=O)n(Cc3cccnc3)c3c2CCC3)cc1F	AC50	[1]	12.6 µM [falling, partial curve]
Cc1ccccc1Oc1nc2ccccn2c(=O)c1/C=C(\C#N)c1nc2ccccc2[nH]1	AC50	[1]	31.6 µM [falling, single point]
COc1ccc(Cc2nc3ccc(C(=O)NCc4ccccc4C)cc3o2)cc1	AC50	[1]	5.01 µM [falling, partial curve, poor fit]
COc1ccc(NC(=O)CN2C(=O)CC(c3ccc(C)c(C)c3)=Nc3ccccc32)cc1OC	AC50	[1]	31.6 µM [falling, partial curve]
COc1ccc(N(Cc2cc3ccccc3[nH]c2=O)C(=O)c2cccc(Cl)c2)cc1	AC50	[1]	25.1 µM [falling, partial curve]
Cc1ccc(NC(=O)c2c(C)cc(C)nc2SCC(=O)Nc2ccc(Br)cc2)cc1	AC50	[1]	3.98 µM [falling, full curve]
CCc1nc2ccc(C(=O)NCCc3ccccc3OC)cc2nc1CC	AC50	[1]	39.8 µM [falling, single point]
